Values from PubChem BioAssay AID1259405 (NCATS, 2018).
Assay: 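Mouse-designed siRNAs used to find CHO productivity engineering targets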 (primary screen). System: Chinese hamster CHO-K1 ovary cells with stable secreted eGFP expression. Knock-down reagent: single siRNA against mouse genes, 0.8 pmol siRNA per well (2 µl of 400 nM stock). Duration: 3 days. Detection: 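Percent of the per-plate non-targeting control median for intracellular GFP per well by laser scanning cytometry and for cell viability by ATP luminescence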. Reading the numbers: GFP, % of control: higher = more GFP per well, higher productivity; viability (ATP), % of control: higher = more viable cells (more ATP). Call rule: 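Called active when intracellular GFP, relative to negative control, is at or above 120%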.
In all, the deposit lists about 50,000 reagents; shown is a random part of them. In the full data, about 4,000 (8%) got an active call. 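Mouse siRNA library applied to hamster cells; one well for each siRNA.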 The numbers tell different reagents against one gene apart.

target | reagent | GFP, % of control | viability (ATP), % of control | outcome
Slco1c1 | 1 | 116 | 105 | inactive
Slco1c1 | 2 | 63.6 | 64.8 | inactive
Slco1c1 | 3 | 96.7 | 94.1 | inactive
Snx1 | 1 | 105 | 111 | inactive
Snx1 | 2 | 103 | 75.4 | inactive
Abtb2 | 1 | 133 | 117 | active
Abtb2 | 2 | 56 | 88.2 | inactive
Lcp1 | 1 | 45.7 | 50.4 | inactive
Lcp1 | 2 | 42.5 | 63.1 | inactive
Zfp352 | 1 | 86.2 | 53.8 | inactive
Zfp352 | 2 | 75.5 | 87.6 | inactive
Zfp352 | 3 | 58.2 | 75.5 | inactive
Inpp4b | 1 | 51.5 | 76 | inactive
Inpp4b | 2 | 74.2 | 46 | inactive
Jade1 | 1 | 73.4 | 53.8 | inactive
Jade1 | 2 | 67 | 79.8 | inactive
Jade1 | 3 | 72.9 | 79.8 | inactive
4930451E10Rik | 1 | 84.4 | 76.4 | inactive
4930451E10Rik | 2 | 23.5 | 20.1 | inactive
4930451E10Rik | 3 | 73.2 | 97.9 | inactive
Cngb3 | 1 | 93.8 | 86.1 | inactive
Cngb3 | 2 | 66.8 | 61.1 | inactive
Cngb3 | 3 | 78.5 | 46.8 | inactive
Fbxw15 | 1 | 75.8 | 70 | inactive
Fbxw15 | 2 | 74.1 | 52.9 | inactive
Fbxw15 | 3 | 72.1 | 94.3 | inactive
Aldh3a2 | 1 | 78.8 | 72 | inactive
Aldh3a2 | 2 | 85.5 | 96.2 | inactive
Aldh3a2 | 3 | 83.3 | 58.6 | inactive
Zkscan2 | 1 | 44.4 | 74.4 | inactive
Zkscan2 | 2 | 69.5 | 66.2 | inactive
Zkscan2 | 3 | 81.8 | 117 | inactive
Dnajc5 | 1 | 72.6 | 77.4 | inactive
Dnajc5 | 2 | 74.5 | 63.8 | inactive
Dnajc5 | 3 | 89.9 | 83.6 | inactive
